These are yes or no findings as the source states them, for the method shown. Binding seen in cells or lysates may run through a third protein. Some binding calls cover weakened binding; strength is not graded here. Each block holds one molecule with its values, some of them ahead of it.
How the values were obtained:
[1] = target: T1, Adipose triglyceride lipase (ATGL), endogenous human (human (endogenous in Chang liver cells, HepG2 cells and human liver tissue)) (UniProt Q96AD5); assay: co-IP; endogenous proteins in lysates of Chang liver cells and HepG2 cells; 1000 μg lysate with 8 μg anti-ATGL or anti-BTRC antibody overnight at 4°C, Protein A/G Sepharose beads 4 h at 4°C, four washes with lysis buffer, western blotting; IgG as negative control
T1 sequence: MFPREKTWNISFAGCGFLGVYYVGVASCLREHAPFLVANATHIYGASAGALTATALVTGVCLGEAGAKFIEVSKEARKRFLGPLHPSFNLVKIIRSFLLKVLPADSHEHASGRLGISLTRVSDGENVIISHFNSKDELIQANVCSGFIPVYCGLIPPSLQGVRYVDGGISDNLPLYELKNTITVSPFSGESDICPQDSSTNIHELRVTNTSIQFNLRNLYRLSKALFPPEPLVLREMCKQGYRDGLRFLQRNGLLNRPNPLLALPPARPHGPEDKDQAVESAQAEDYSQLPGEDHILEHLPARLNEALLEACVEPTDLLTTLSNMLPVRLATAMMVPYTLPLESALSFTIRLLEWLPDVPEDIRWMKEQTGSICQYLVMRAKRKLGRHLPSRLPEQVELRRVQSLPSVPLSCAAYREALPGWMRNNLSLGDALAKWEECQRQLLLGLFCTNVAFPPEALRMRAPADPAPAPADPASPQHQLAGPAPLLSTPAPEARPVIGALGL

[2] = target: T1, Adipose triglyceride lipase (ATGL), endogenous human (human (endogenous in Chang liver cells, HepG2 cells and human liver tissue)); assay: co-IP; endogenous proteins in mouse and human liver tissue homogenates; 1000 μg homogenate with 8 μg anti-ATGL or anti-BTRC antibody overnight at 4°C, Protein A/G Sepharose beads 4 h at 4°C, four washes with lysis buffer, western blotting; IgG as negative control
[3] = target: T2, Adipose triglyceride lipase (ATGL), human, overexpressed from plasmid (human) (UniProt Q96AD5); assay: co-IP; lysates of HEK293A cells co-expressing BTRC and ATGL; 1000 μg lysate with 8 μg anti-ATGL or anti-BTRC antibody overnight at 4°C, Protein A/G Sepharose beads 4 h at 4°C, four washes with lysis buffer, western blotting; IgG as negative control
T2 sequence: T1 sequence

[4] = target: T3, Adipose triglyceride lipase (ATGL), endogenous mouse (mouse (endogenous in mouse liver tissue)) (UniProt Q8BJ56); assay: co-IP; endogenous proteins in mouse and human liver tissue homogenates; 1000 μg homogenate with 8 μg anti-ATGL or anti-BTRC antibody overnight at 4°C, Protein A/G Sepharose beads 4 h at 4°C, four washes with lysis buffer, western blotting; IgG as negative control
T3 sequence: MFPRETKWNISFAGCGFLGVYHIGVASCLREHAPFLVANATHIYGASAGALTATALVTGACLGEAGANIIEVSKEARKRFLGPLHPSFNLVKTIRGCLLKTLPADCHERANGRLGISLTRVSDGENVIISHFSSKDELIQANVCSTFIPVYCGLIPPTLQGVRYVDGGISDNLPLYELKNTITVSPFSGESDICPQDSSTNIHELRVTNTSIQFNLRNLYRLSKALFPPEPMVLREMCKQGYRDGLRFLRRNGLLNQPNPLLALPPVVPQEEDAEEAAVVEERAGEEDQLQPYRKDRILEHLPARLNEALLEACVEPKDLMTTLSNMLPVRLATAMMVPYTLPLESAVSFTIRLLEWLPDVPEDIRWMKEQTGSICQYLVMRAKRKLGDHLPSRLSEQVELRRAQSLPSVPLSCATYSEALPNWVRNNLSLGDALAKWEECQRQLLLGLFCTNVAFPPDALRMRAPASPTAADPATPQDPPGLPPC

binding [1]: binds
binding [2]: binds
Molecule: Beta-transducin repeat containing (BTRC), endogenous human (from UniProt Q9Y297 1-605)

binding [3]: binds
Molecule: Beta-transducin repeat containing (BTRC), human, overexpressed from plasmid (from UniProt Q9Y297 1-605)

binding [4]: binds
B1: Beta-transducin repeat containing (BTRC), endogenous mouse (protein, UniProt Q3ULA2 1-605)
chain: MDPAEAVLQEKALKFMCSMPRSLWLGCSSLADSMPSLRCLYNPGTGALTAFQNSSEREDCNNGEPPRKIIPEKNSLRQTYNSCARLCINQETVCLTSTAMKTENCVAKAKLANGTSSMIVPKQRKLSASYEKEKELCVKYFEQWSESDQVEFVEHLISQMCHYQHGHINSYLKPMLQRDFITALPARGLDHIAENILSYLDAKSLCAAELVCKEWYRVTSDGMLWKKLIERMVRTDSLWRGLAERRGWGQYLFKNKPPDENAPPNSFYRALYPKIIQDIETIESNWRCGRHSLQRIHCRSETSKGVYCLQYDDQKIVSGLRDNTIKIWDKSTLECKRILTGHTGSVLCLQYDERVIITGSSDSTVRVWDVNAGEMLNTLIHHCEAVLHLRFNNGMMVTCSKDRSIAVWDMASPTDITLRRVLVGHRAAVNVVDFDDKYIVSASGDRTIKVWNTSTCEFVRTLNGHKRGIACLQYRDRLVVSGSSDNTIRLWDIECGACLRVLEGHEELVRCIRFDNKRIVSGAYDGKIKVWDLMAALDPRAPAGTLCLRTLVEHSGRVFRLQFDEFQIVSSSHDDTILIWDFLNDPAAHAEPPRSPSRTYTYISR

— publication PMC10993717
